Data reported in the supplement of paper PMC10849652.
Some of the results follow.

Chains of the proteins cited; added tags and fusions are not shown. Lines headed by an entry give the natural chain unless they say otherwise; changes in a name come on top.
UniProt Q15050: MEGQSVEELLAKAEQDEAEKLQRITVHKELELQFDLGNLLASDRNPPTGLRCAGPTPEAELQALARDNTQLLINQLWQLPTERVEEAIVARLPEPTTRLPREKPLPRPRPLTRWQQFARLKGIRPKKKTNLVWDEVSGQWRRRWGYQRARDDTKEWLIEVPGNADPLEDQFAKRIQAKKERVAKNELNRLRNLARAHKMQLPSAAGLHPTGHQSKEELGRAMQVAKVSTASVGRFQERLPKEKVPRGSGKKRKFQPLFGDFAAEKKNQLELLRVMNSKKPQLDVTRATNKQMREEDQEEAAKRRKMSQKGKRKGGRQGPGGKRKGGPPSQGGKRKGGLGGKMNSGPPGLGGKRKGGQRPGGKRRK
UniProt O43818: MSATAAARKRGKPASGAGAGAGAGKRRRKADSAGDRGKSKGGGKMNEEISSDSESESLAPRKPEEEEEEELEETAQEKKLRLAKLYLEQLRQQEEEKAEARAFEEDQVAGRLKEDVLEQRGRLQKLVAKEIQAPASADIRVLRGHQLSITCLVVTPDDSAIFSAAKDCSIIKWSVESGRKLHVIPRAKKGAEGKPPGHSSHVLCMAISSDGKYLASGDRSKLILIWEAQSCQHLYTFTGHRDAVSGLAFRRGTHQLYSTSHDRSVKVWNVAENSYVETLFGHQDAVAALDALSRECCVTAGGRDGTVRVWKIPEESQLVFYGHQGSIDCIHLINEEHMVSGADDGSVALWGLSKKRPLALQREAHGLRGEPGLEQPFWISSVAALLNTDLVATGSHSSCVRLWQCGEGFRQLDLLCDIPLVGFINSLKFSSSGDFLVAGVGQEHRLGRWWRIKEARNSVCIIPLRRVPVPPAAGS
UniProt Q96T51: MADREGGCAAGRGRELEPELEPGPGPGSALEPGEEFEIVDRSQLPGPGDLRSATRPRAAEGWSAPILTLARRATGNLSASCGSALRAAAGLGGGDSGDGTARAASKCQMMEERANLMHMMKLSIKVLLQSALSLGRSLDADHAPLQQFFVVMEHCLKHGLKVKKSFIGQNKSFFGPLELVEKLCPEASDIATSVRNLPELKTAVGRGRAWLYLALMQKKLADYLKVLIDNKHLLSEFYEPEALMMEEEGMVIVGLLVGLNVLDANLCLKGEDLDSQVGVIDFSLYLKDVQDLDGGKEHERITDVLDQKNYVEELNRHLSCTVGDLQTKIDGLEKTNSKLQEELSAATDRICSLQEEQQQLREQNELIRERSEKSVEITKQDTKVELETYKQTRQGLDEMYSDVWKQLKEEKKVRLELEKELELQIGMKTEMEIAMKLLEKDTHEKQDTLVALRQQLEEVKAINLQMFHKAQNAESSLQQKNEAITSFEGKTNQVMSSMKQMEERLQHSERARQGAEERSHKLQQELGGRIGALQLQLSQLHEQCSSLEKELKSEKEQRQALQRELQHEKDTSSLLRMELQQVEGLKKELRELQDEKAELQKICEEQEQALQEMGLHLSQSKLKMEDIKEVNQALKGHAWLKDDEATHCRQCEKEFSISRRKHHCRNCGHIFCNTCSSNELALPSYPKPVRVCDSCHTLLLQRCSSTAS
UniProt Q5VZM2, whole entry, looked up: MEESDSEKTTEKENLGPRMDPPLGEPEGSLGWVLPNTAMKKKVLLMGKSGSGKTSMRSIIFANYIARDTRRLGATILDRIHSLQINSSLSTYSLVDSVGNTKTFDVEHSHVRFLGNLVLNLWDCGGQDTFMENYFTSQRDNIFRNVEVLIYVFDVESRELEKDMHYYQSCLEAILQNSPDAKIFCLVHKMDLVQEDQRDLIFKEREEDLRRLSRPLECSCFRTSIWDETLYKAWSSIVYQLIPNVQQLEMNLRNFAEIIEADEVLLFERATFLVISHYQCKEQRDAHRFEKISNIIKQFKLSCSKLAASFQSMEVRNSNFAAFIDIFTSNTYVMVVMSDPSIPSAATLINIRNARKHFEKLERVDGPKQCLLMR
UniProt Q96S38: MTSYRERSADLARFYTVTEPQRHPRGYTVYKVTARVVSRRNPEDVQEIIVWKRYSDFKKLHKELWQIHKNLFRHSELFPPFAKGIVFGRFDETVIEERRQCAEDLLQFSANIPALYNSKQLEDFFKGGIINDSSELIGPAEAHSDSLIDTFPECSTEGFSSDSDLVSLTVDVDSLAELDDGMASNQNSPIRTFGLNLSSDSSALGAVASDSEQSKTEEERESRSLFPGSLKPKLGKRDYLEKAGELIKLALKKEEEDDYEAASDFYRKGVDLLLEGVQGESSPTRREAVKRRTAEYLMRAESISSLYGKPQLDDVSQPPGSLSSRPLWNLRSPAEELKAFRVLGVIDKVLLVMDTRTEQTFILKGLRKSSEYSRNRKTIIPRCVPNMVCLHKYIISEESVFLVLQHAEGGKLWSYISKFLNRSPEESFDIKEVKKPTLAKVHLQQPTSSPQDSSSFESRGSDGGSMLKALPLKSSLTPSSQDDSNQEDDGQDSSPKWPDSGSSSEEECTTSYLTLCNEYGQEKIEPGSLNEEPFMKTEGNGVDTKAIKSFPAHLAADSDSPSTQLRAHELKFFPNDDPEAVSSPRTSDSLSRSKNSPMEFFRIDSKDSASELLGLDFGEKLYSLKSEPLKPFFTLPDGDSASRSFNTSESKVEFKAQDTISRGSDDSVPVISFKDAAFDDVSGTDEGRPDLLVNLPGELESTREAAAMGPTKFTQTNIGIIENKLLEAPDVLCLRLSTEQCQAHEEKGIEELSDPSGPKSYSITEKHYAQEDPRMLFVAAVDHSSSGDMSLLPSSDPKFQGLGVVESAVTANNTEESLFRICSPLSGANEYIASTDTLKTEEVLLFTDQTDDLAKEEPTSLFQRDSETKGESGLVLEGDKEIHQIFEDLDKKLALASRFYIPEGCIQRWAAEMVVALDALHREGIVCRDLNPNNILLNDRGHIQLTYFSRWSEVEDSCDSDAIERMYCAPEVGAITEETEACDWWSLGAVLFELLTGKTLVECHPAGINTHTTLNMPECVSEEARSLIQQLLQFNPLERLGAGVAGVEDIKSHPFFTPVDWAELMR
UniProt Q9NQG5: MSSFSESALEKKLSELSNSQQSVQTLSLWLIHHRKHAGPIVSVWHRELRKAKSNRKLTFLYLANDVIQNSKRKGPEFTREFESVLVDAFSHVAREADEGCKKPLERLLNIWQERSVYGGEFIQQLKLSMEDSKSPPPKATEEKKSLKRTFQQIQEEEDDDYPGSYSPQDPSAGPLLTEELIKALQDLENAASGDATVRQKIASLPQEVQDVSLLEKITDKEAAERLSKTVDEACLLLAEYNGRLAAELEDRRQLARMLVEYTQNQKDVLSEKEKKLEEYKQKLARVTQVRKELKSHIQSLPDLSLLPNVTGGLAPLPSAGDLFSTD
UniProt P04843: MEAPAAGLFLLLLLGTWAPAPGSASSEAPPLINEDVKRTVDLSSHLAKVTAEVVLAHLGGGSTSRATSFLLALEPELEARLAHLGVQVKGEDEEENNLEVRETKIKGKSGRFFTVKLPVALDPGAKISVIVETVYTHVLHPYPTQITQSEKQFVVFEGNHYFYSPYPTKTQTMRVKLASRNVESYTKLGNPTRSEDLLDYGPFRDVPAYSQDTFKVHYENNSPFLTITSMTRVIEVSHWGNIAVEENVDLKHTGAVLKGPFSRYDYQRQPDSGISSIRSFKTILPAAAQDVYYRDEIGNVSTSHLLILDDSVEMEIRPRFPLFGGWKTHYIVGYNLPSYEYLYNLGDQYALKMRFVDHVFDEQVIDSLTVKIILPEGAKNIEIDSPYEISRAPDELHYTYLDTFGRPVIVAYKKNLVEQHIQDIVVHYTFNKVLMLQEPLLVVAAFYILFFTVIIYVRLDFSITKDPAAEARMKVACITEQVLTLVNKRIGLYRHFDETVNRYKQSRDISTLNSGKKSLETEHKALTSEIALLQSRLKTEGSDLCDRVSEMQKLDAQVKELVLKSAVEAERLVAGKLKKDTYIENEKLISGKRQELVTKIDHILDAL
UniProt Q9Y230, whole entry, looked up: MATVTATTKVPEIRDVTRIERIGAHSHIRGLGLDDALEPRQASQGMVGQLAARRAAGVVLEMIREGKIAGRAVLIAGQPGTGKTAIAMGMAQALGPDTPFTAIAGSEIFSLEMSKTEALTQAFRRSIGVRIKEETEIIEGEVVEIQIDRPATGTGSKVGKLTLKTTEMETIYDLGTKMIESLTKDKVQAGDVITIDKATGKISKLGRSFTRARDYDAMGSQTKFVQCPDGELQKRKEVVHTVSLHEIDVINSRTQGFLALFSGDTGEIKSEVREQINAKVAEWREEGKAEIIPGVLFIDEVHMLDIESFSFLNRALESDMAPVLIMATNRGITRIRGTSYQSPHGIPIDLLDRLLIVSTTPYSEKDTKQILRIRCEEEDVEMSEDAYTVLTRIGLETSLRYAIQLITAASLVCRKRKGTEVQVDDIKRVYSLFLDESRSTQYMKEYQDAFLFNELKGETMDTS
UniProt P57060: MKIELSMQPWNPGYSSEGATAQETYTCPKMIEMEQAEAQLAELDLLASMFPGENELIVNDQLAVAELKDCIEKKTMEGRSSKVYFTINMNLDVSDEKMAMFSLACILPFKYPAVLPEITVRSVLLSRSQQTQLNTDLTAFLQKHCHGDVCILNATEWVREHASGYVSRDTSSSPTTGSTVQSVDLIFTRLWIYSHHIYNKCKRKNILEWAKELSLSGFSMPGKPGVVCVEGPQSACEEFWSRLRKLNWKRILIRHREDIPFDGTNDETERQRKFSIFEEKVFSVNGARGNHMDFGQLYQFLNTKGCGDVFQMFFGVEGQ
UniProt O95197: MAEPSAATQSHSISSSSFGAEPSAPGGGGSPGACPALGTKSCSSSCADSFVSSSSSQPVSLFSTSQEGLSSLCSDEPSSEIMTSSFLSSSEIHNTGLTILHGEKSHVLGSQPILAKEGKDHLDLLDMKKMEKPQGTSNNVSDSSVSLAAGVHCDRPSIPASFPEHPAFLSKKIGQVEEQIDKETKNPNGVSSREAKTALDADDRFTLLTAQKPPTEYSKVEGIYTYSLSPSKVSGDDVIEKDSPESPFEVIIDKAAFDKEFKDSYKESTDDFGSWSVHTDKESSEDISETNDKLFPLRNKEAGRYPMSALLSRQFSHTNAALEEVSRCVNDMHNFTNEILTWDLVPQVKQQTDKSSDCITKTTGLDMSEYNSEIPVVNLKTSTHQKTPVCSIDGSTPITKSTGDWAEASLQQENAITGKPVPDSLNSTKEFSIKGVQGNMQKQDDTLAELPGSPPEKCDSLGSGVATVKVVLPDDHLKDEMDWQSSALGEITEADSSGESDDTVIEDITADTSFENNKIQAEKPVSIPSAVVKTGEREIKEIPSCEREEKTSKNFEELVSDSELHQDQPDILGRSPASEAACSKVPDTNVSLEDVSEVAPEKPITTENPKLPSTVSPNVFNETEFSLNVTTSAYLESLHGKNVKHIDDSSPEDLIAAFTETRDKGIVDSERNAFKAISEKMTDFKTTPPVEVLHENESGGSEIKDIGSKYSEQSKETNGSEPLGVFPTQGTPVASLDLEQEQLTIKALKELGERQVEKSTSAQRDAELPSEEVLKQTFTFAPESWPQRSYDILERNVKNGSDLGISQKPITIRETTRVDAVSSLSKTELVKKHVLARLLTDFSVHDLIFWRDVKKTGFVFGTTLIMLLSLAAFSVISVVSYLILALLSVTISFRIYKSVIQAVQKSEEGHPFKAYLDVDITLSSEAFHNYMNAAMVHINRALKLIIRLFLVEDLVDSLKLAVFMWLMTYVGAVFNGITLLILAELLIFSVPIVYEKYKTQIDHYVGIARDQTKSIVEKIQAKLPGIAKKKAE
UniProt Q96IZ7: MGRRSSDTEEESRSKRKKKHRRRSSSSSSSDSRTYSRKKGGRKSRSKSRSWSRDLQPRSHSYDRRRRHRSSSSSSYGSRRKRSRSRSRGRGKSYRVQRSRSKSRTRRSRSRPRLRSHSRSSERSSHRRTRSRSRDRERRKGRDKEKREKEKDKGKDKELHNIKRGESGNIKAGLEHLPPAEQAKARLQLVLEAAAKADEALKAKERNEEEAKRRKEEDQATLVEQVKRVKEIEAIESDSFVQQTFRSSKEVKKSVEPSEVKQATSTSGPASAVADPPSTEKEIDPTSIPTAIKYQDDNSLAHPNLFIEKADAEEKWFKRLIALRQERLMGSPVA
UniProt Q01196, whole entry, looked up: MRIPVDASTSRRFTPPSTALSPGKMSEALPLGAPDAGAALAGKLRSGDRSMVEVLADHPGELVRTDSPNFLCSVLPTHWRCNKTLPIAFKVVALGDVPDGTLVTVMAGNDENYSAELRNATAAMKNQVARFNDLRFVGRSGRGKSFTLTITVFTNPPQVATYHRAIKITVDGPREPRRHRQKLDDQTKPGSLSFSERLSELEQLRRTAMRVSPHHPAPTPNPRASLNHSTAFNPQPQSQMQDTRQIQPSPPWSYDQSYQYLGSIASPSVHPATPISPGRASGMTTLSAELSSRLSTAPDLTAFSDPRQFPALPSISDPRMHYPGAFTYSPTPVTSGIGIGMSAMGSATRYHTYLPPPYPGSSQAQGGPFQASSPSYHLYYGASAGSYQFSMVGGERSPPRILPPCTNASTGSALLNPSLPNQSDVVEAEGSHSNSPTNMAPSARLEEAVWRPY

How the values were obtained:
Assay in all cases: log2 fold change, soluble protein after heating vs DMSO (PISA); higher = thermal stabilisation; K562 lysate, 10 uM; active = over 0.2 and 3.5 SD of the protein, either way, in both replicates (recomputed)
erlotinib = compound: C#Cc1cccc(Nc2ncnc3cc(OCCOC)c(OCCOC)cc23)c1 [erlotinib]
Summary of the method: (§1)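 K562 pellets were dounce-homogenised in PBS pH 7.4 with 1 mM MgCl2, and the crude extract at 1 mg/mL protein was treated with 10 μM compound for 30 min. Aliquots were heated for 3 min across 48°C-58°C, pooled, and brought to 0.5% NP-40 at 4°C; soluble protein was the supernatant after 21,000xg for 90 min. Soluble protein was quantified by TMTpro 16plex LC-MS/MS with channel sums equalised, and reported as log2 fold change in thermal stability against DMSO controls, with values from duplicates.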

[1] = compound: C/C(=N\NC(=O)C1=CC(=CC=C1)S(=O)(=O)N2CCOCC2)/C3=C(C=CC(=C3)Cl)O
Summary of the method: as §1

[2] = compound: C1=CC(=CC=C1C2=NC3=C(N2)C=C(C=C3)C(=O)N)OC4=CC=C(C=C4)Cl
Summary of the method: as §1

[3] = compound: C1=CC2=C(C=CC(=C2)/C=C\3/C(=O)NC(=NCC4=CC=CS4)S3)N=C1
Summary of the method: as §1

[4] = compound: C1=CC2=NC=CN=C2C=C1/C=C/3\C(=O)NC(=O)S3
Summary of the method: as §1

[5] = compound: C1=CC=C(C=C1)C2=NC(=C(N2)C3=CC=NC=C3)C4=CC(=C(C=C4)Cl)O
Summary of the method: as §1

[6] = compound: C1=CC=C2C(=C1)C3=NNC4=CC=CC(=C43)C2=O
Summary of the method: as §1

[7] = compound: C1CCN(C1)C(=O)NC2=CC=CC(=C2)NC3=NC=C(C(=N3)NCCC4=CN=CN4)Br
Summary of the method: as §1

[8] = compound: C1CN(CCC1(CC2=CC=C(C=C2)Cl)N)C3=NC=NC4=C3C=CN4
Summary of the method: as §1

IRAK-1-4 Inhibitor I = compound: C1COCCN1CCN2C3=CC=CC=C3N=C2NC(=O)C4=CC(=CC=C4)[N+](=O)[O-] [IRAK-1-4 Inhibitor I]
Summary of the method: as §1

Measured: log2 fold change

RRS1 (UniProt Q15050)
inactive: erlotinib -0.013 | [1] -0.103 | [2] -0.035 | [3] -0.016 | [4] -0.054 | [5] 0.007 | [6] 0.037 | [7] 0.034 | [8] -0.015 | IRAK-1-4 Inhibitor I -0.01

RRP9 (UniProt O43818)
inactive: erlotinib -0.155 | [1] -0.02 | [2] -0.096 | [3] -0.041 | [4] -0.018 | [5] -0.006 | [6] -0.117 | [7] -0.229 | [8] -0.063 | IRAK-1-4 Inhibitor I 0.004

RUFY1 (UniProt Q96T51)
inactive: erlotinib -0.02 | [1] -0.016 | [2] 0.014 | [3] 0 | [4] -0.013 | [5] 0.013 | [6] -0.007 | [7] -0.01 | [8] 0.004 | IRAK-1-4 Inhibitor I 0.009

RRAGB (UniProt Q5VZM2)
inactive: erlotinib -0.025 | [1] 0.022 | [2] -0.031 | [3] 0.014 | [4] 0.002 | [5] -0.012 | [6] -0.022 | [7] -0.039 | [8] -0.022 | IRAK-1-4 Inhibitor I 0.027

RPS2 (UniProt P15880)
inactive: erlotinib 0.008 | [1] -0.032 | [2] -0.006 | [3] 0.003 | [4] -0.019 | [5] -0.004 | [6] 0.036 | [7] 0.002 | [8] -0.016 | IRAK-1-4 Inhibitor I -0.005

RPS6KC1 (UniProt Q96S38)
inactive: erlotinib 0.003 | [1] -0.103 | [2] 0.006 | [3] -0.01 | [4] 0 | [5] 0.023 | [6] 0.003 | [7] -0.066 | [8] 0.005 | IRAK-1-4 Inhibitor I -0.004

RPL37A (UniProt P61513)
inactive: erlotinib -0.012 | [1] -0.067 | [2] -0.006 | [3] -0.011 | [4] -0.03 | [5] 0.03 | [6] 0.064 | [7] 0.039 | [8] -0.035 | IRAK-1-4 Inhibitor I -0.023

RPRD1B (UniProt Q9NQG5)
inactive: erlotinib -0.052 | [1] -0.039 | [2] -0.075 | [3] -0.017 | [4] 0.017 | [5] -0.017 | [6] 0.026 | [7] 0.008 | [8] 0.027 | IRAK-1-4 Inhibitor I -0.034

RPS25 (UniProt P62851)
inactive: erlotinib -0.008 | [1] -0.048 | [2] -0.035 | [3] -0.041 | [4] -0.047 | [5] 0.011 | [6] 0.01 | [7] 0.031 | [8] 0.026 | IRAK-1-4 Inhibitor I 0.009

RRAS (UniProt P10301)
inactive: erlotinib -0.001 | [1] 0.05 | [2] -0.026 | [3] -0.02 | [4] 0.018 | [5] 0.004 | [6] 0.057 | [7] -0.003 | [8] -0.041 | IRAK-1-4 Inhibitor I 0.029

RSL1D1 (UniProt O76021)
inactive: erlotinib -0.017 | [1] -0.039 | [2] -0.019 | [3] 0.008 | [4] -0.01 | [5] 0.017 | [6] 0.034 | [7] 0.05 | [8] -0.012 | IRAK-1-4 Inhibitor I -0.021

2 consecutive entries out of the list so far:
RPL37A (UniProt P61513)
inactive: erlotinib -0.012 | [1] -0.067 | [2] -0.006 | [3] -0.011 | [4] -0.03 | [5] 0.03 | [6] 0.064 | [7] 0.039 | [8] -0.035 | IRAK-1-4 Inhibitor I -0.023

RPRD1B (UniProt Q9NQG5)
inactive: erlotinib -0.052 | [1] -0.039 | [2] -0.075 | [3] -0.017 | [4] 0.017 | [5] -0.017 | [6] 0.026 | [7] 0.008 | [8] 0.027 | IRAK-1-4 Inhibitor I -0.034

(next part)

RPS27L (UniProt Q71UM5)
inactive: erlotinib 0.016 | [1] -0.225 | [2] 0.002 | [3] 0.022 | [4] 0.012 | [5] -0.004 | [6] 0.008 | [7] 0.004 | [8] -0.022 | IRAK-1-4 Inhibitor I -0.007

RSRC2 (UniProt Q7L4I2)
inactive: erlotinib -0.093 | [1] 0.061 | [2] 0.031 | [3] 0.032 | [4] -0.029 | [5] 0.022 | [6] -0.005 | [7] -0.015 | [8] -0.02 | IRAK-1-4 Inhibitor I -0.048

RPN1 (UniProt P04843)
inactive: erlotinib -0.001 | [1] -0.017 | [2] 0 | [3] 0.004 | [4] 0.004 | [5] -0.003 | [6] -0.02 | [7] -0.022 | [8] 0.02 | IRAK-1-4 Inhibitor I 0.027

RPP38 (UniProt P78345)
inactive: erlotinib -0.023 | [1] 0 | [2] -0.012 | [3] -0.058 | [4] -0.027 | [5] 0.008 | [6] -0.021 | [7] -0.017 | [8] -0.001 | IRAK-1-4 Inhibitor I 0.033

RSU1 (UniProt Q15404)
inactive: erlotinib 0.017 | [1] 0.006 | [2] -0.039 | [3] -0.052 | [4] -0.011 | [5] -0.003 | [6] 0.017 | [7] 0.009 | [8] -0.027 | IRAK-1-4 Inhibitor I 0

RPLP0 (UniProt P05388)
inactive: erlotinib 0.004 | [1] -0.018 | [2] -0.045 | [3] -0.008 | [4] -0.002 | [5] 0.028 | [6] 0.013 | [7] 0.026 | [8] 0.026 | IRAK-1-4 Inhibitor I 0.035

RUVBL2 (UniProt Q9Y230)
inactive: erlotinib -0.026 | [1] -0.045 | [2] 0.003 | [3] -0.009 | [4] 0.002 | [5] 0.008 | [6] -0.008 | [7] 0.029 | [8] 0.014 | IRAK-1-4 Inhibitor I 0.013

RPS3 (UniProt P23396)
inactive: erlotinib -0.023 | [1] 0.002 | [2] -0.019 | [3] -0.01 | [4] -0.006 | [5] -0.009 | [6] 0.012 | [7] -0.006 | [8] -0.03 | IRAK-1-4 Inhibitor I -0.006

RWDD2B (UniProt P57060)
inactive: erlotinib -0.037 | [1] 0.008 | [2] 0.051 | [3] -0.018 | [4] 0.04 | [5] 0 | [6] -0.089 | [7] 0.04 | [8] 0.056 | IRAK-1-4 Inhibitor I -0.026

RTN3 isoform 5 (UniProt O95197)
inactive: erlotinib 0.132 | [1] 0.102 | [2] -0.142 | [3] -0.013 | [4] 0.03 | [5] -0.021 | [6] 0.002 | [7] 0.014 | [8] -0.029 | IRAK-1-4 Inhibitor I 0.153

RPL7 (UniProt P18124)
inactive: erlotinib 0.003 | [1] 0.004 | [2] 0.002 | [3] -0.003 | [4] -0.005 | [5] 0.009 | [6] 0.033 | [7] 0.05 | [8] -0.004 | IRAK-1-4 Inhibitor I 0.008

RPS27 (UniProt P42677)
inactive: erlotinib 0.043 | [1] 0.108 | [2] -0.059 | [3] -0.05 | [4] -0.035 | [5] -0.008 | [6] -0.046 | [7] 0.079 | [8] 0.045 | IRAK-1-4 Inhibitor I 0.115

RPS8 (UniProt P62241)
inactive: erlotinib -0.011 | [1] 0.105 | [2] 0.001 | [3] 0.028 | [4] -0.041 | [5] 0.007 | [6] 0.059 | [7] 0.022 | [8] -0.016 | IRAK-1-4 Inhibitor I -0.001

RSRC1 (UniProt Q96IZ7)
inactive: erlotinib 0.023 | [1] -0.024 | [2] -0.008 | [3] -0.005 | [4] 0.003 | [5] 0.02 | [6] 0.014 | [7] 0.009 | [8] -0.028 | IRAK-1-4 Inhibitor I -0.009

RUNX1 isoform 8 (UniProt Q01196)
inactive: erlotinib -0.059 | [1] -0.13 | [2] -0.008 | [3] 0.053 | [4] 0.043 | [5] -0.115 | [6] 0.011 | [7] 0.063 | [8] -0.024 | IRAK-1-4 Inhibitor I 0.045

RPL5 (UniProt P46777)
inactive: erlotinib -0.005 | [1] 0.025 | [2] 0.004 | [3] 0.008 | [4] -0.004 | [5] -0.001 | [6] -0.03 | [7] 0.014 | [8] -0.012 | IRAK-1-4 Inhibitor I 0
